The series deals with serine proteases. Nature of the series: Proteolytic cleavage of single chain pre-HP2 by serine proteases (SDS-PAGE). Type of series: biochemical. Conditions: purified single chain pre-HP2.

As for “zonulin: Recombinant human haptoglobin-2 precursor (pre-HP2), uncleaved single chain, expressed in a baculovirus system”, the “cleavage by matriptase, urokinase, thrombin and plasma kallikrein” value is “did not cleave”; the cleavage by plasmin entry is listed as “complete degradation”. Also, for the setting “cleaved at Arg161”, the cleavage by trypsin result is “appearance of two major bands”.

The values are drawn from US20140363818A1, “EGFR and PAR2 Regulation of Intestinal Permeability” (UNIVERSITY OF MARYLAND, BALTIMORE, priority 2009, published 2014).
